Experimental data reported in article PMC6639060.
Numbering of substitutions follows the chain as printed. These are yes or no findings as the source states them, for the method shown. In cells and extracts the contact can be indirect. Binding can be weak; no strength is given. Sequences can lack the tags named with a protein.

The chains behind the UniProt entries cited, without tags or fusion partners. Where a name states a change or a piece, a line headed by the entry shows the natural chain unless it says otherwise.
UniProt Q5TC63: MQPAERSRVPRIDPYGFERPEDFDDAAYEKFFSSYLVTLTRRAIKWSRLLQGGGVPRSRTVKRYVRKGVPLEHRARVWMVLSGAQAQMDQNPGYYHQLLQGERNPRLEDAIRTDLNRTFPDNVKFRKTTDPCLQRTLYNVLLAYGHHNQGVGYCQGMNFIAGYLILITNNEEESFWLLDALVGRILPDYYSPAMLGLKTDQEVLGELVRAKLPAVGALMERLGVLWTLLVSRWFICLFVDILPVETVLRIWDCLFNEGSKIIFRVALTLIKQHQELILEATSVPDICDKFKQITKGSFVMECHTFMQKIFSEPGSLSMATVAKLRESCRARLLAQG

What was measured:
Experiment in all cases: pull-down; GST-Rab26 (wild type or mutant) fusion proteins (MagneGST pulldown system) incubated with total HEK293 cell lysates expressing TBC proteins or TBC1D6 domains; 500 μL binding buffer, 20 mM Tris-HCl pH 7.5, 140 m NaCl, 1% Nonidet P-40, 4 h at 4°C; bound proteins detected by immunoblotting; only the target purified
GST-Rab26Q123L = target: T1, GST-Rab26Q123L (UniProt Q9ULW5)
T1 sequence: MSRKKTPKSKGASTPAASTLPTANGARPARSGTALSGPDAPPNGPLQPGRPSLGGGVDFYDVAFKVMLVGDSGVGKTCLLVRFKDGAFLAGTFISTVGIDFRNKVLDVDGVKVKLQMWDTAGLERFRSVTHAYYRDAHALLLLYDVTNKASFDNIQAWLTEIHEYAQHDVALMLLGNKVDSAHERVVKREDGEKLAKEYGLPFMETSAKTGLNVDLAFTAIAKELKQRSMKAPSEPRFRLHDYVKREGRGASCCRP

GST-Rab26T77N = target: T2, GST-Rab26T77N (UniProt Q9ULW5)
T2 sequence: T1 sequence with T77N, L123Q

GST-Rab26 = target: T3, GST-Rab26 (UniProt Q9ULW5)
T3 sequence: T1 sequence with L123Q

Measured: binding

TBC1D6 C terminus (from UniProt Q5TC63) (domain or fragment)
binds: all assays above

TBC1D6 TBC domain (from UniProt Q5TC63) (domain or fragment)
binds: all assays above
